For one assay, the target named is T1, B14-3xFLAG (human) (UniProt Q8TBM8).
T1 sequence: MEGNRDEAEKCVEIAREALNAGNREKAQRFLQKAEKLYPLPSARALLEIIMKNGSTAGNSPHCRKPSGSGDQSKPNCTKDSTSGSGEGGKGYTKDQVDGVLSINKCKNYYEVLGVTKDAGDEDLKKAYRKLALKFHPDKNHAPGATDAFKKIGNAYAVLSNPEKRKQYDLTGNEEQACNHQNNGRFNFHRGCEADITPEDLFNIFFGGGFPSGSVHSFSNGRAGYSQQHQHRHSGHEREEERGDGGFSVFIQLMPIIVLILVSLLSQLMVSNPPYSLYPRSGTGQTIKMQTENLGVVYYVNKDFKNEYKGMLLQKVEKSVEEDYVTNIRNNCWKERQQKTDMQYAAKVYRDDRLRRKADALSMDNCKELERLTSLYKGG
In words: co-IP; eluates of B14-3xFLAG immunopurification (0.1% digitonin, anti-FLAG M2 agarose, 3xFLAG peptide elution) immunoblotted. In general terms: Immunoblotting shows a protein as a band on a membrane.

Chains of the proteins cited; added tags and fusions are not shown.
UniProt O43765: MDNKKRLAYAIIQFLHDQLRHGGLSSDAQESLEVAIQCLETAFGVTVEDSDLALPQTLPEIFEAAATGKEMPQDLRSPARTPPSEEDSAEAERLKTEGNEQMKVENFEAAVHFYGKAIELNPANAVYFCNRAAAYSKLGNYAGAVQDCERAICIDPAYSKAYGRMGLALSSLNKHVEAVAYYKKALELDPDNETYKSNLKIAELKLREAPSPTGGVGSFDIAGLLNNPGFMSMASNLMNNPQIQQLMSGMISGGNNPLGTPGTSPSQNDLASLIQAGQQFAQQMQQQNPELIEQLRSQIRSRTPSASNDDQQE
UniProt P11142: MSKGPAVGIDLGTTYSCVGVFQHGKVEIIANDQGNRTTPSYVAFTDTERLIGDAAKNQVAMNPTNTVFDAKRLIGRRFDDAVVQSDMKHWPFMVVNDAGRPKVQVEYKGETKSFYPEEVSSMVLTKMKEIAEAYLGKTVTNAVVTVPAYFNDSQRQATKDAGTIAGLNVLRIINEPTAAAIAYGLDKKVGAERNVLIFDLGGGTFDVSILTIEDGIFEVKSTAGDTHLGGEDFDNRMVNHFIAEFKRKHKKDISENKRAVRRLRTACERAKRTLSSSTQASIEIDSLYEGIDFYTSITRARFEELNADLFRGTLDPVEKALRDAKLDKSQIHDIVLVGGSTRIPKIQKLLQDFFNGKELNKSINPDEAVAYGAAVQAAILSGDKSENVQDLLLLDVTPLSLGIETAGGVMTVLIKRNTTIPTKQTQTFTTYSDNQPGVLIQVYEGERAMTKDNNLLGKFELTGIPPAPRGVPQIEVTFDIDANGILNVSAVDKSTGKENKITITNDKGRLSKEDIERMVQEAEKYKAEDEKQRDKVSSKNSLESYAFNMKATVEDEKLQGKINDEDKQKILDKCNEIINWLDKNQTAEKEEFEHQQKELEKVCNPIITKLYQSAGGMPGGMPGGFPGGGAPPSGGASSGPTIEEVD

The target in assay [1] is small glutamine-rich tetratricopeptide repeat-containing protein α (human (endogenous in 293 and 293T)) (UniProt O43765). Nature of the assay: co-IP; endogenous SGTA immunoprecipitated from 293T or CV-1 lysate; 0.1% digitonin, 50 mM Tris, 150 mM NaCl, 1 mM EDTA; protein A agarose, washes without detergent.

These are yes or no findings as the source states them, for the method shown. Binding seen in cells or lysates may run through a third protein. Some entries that bind do so weakly or less than the wild type. For some assays here: Where a sequence is shown, tags or fusion partners need not be part of it.

Consider Hsc70 (from UniProt P11142 1-646), for which, in the assay with B14-3xFLAG (human), the binding result is reported as “binds”.

B1: BAP31 (protein, UniProt P51572 1-246)
chain: MSLQWTAVATFLYAEVFVVLLLCIPFISPKRWQKIFKSRLVELLVSYGNTFFVVLIVILVLLVIDAVREIRKYDDVTEKVNLQNNPGAMEHFHMKLFRAQRNLYIAGFSLLLSFLLRRLVTLISQQATLLASNEAFKKQAESASEAAKKYMEENDQLKKGAAVDGGKLDVGNAEVKLEEENRSLKADLQKLKDELASTKQKLEKAENQVLAMRKQSEGLTKEYDRLLEEHAKLQAAVDGPMDKKEE
For B1, in assay [1], the binding result is reported as “no binding”.

(Values after paper PMC3968126.)
